Reference: patent US7488834B2, “Organic semiconductors” (Alcatel-Lucent USA Inc., priority 2005, dated 2009)

Columns and labels:
[1] = FET on PEN foil, spin coated semiconductor, PVA dielectric, linear regime (Examples 3-4)
[2] = FET charge carrier mobility, Si/SiO2/PTTP composition/Au, saturation regime (Examples 1, 2)
[3] = FET on PEN foil, vapor deposited semiconductor, PVA dielectric (Example 5); details: Example 5: vapor deposited, gold source/drain, PVA about 2 μ, carbon paint gate
[4] = Example 3 additional FET: gold source/drain, 3% w/w in THF, PVA about 3.5 μ, annealed 150° C. 15 minutes
[5] = Example 4: 0.5% w/w in THF with 1% by weight polystyrene, laser-patterned electrodes, PVA about 3,500 nm
[6] = Example 2, sublimed at 70° C. onto silicon dioxide, gold electrodes
[7] = drop casting, Si/SiO2/PTTP composition/Au

For CCCCCC(C)Oc1ccc(-c2ccc(-c3ccc(-c4ccc(OC(C)CCCCC)cc4)s3)s2)cc1 (centres unmarked) [6(1Me)-O-PTTP-O-6(1Me), 5,5′bis(4-(1-methylhexyloxy)phenyl)-2,2′-bithiophene], which “mobility of the FET” value ([1]; Example 3: PEDOT source/drain, 5% w/w solution in THF, PVA about 1.4 μ) is on record?
The value was 1×10^−3 cm^2/Vs.

What about the on/off ratio ([1]; Example 3: PEDOT source/drain, 5% w/w solution in THF, PVA about 1.4 μ, from output characteristic) of the same compound?
The on/off ratio was 190.

What about the “mobility of the FET” value [1, 4] of the same compound?
Its value is 4.8×10^−3 cm^2/Vs.

What about the on/off ratio [1, 4] of the same compound?
The on/off ratio was 6.

And the “mobility of the FET” value [1, 5]?
Its value is 7×10^−3 cm^2/Vs.

And the on/off ratio [1, 5]?
The on/off ratio was 20.

And the “mobility μ” value [2, 6]?
Its value is 1×10^−3 cm^2/Vs.

For CCCCCC(C)Cc1ccc(-c2ccc(-c3ccc(-c4ccc(CC(C)CCCCC)cc4)s3)s2)cc1 (centres unmarked) [7(2Me)-PTTP-7(2Me), 5,5′-bis(4-(2-methylheptyl)phenyl)-2,2′-bithiophene, reference compound], which “mobility μ” value [2, 6] is on record?
Its value is 4×10^−4 cm^2/Vs.

Which “mobility μ” value ([2]; sublimed films at 70° C., Si/SiO2/PTTP composition/Au) does the source give for CCCCCC(CC)Oc1ccc(-c2ccc(-c3ccc(-c4ccc(OC(CC)CCCCC)cc4)s3)s2)cc1 (centres unmarked) [6(1Et)-O-PTTP-O-6(1Et), 5,5′-Bis-[4-(1-ethyl-hexyloxy)-phenyl]-[2,2′]bithiophenyl] here?
Its value is 4.4×10^−7 cm^2/Vs.

Which “mobility μ” value [2, 7] does the source give for CC(C)CCCC(C)CCOc1ccc(-c2ccc(-c3ccc(-c4ccc(OCCC(C)CCCC(C)C)cc4)s3)s2)cc1 (centres unmarked) [8(3,7Me)-O-PTTP-O-8(3,7Me), 5,5′-bis(4-(3,7-dimethyloctyloxy)phenyl)-2,2′-bithiophene] here?
The value was 6×10^−6-5×10^−5 cm^2/Vs.

Which “mobility of the FET” value [3] does the source give for CCCOCCc1ccc(-c2ccc(-c3ccc(-c4ccc(CCOCCC)cc4)s3)s2)cc1 [3O2PTTP2O3, 5,5′-Bis(4-(propxyethyl)phenyl)-2,2′-bithiophene] here?
Its value is 3×10^−3 cm^2/Vs.

What about the on/off ratio [3] of the same compound?
Its on/off ratio is 27.1.

Which “mobility μ” value [2, 7] does the source give for CCC(CC)COc1ccc(-c2ccc(-c3ccc(-c4ccc(OCC(CC)CC)cc4)s3)s2)cc1 [4(2Et)-O-PTTP-O-4(2Et), 5,5′-bis(4-(2-ethylbutyloxy)phenyl)-2,2′-bithiophene] here?
The value was 10^−6-5×10^−5 cm^2/Vs.

Which “mobility μ” value [2, 7] does the source give for CCCCC(CC)COc1ccc(-c2ccc(-c3ccc(-c4ccc(OCC(CC)CCCC)cc4)s3)s2)cc1 (centres unmarked) [6(2Et)-O-PTTP-O-6(2Et), 5,5′-bis(4-(2-ethylhexyloxy)phenyl)-2,2′-bithiophene] here?
Its value is 5×10^−8-7×10^−7 cm^2/Vs.
